The list shows a part of the results.
Compound: COc1ccc(Cn2ccc3ccc(C(=O)NO)cc32)cc1
Experiment: dose-dependent thermal stabilisation call (2D-TPP, DLPTP, 10% FDR) (binary (1 = stabilised)); higher = stabilised by the compound
Details: system: HL-60 intact cells; concentration range 0.04-10 µM

Chains of the proteins cited; added tags and fusions are not shown. Lines headed by an entry give the natural chain unless they say otherwise; changes in a name come on top.
UniProt Q9HAB8: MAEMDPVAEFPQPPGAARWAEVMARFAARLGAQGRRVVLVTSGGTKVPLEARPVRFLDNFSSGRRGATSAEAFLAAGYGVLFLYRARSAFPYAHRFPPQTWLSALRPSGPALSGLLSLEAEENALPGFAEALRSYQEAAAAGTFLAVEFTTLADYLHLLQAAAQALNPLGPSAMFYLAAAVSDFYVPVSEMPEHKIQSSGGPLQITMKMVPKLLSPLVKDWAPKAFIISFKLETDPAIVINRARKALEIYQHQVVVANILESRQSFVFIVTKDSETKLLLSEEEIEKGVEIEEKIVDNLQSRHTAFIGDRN
UniProt Q15126: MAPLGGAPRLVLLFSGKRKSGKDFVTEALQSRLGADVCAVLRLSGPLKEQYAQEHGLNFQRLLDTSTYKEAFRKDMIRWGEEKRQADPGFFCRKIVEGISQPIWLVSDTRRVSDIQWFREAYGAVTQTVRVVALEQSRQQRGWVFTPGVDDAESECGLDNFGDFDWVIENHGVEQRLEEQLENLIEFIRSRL
UniProt Q93100: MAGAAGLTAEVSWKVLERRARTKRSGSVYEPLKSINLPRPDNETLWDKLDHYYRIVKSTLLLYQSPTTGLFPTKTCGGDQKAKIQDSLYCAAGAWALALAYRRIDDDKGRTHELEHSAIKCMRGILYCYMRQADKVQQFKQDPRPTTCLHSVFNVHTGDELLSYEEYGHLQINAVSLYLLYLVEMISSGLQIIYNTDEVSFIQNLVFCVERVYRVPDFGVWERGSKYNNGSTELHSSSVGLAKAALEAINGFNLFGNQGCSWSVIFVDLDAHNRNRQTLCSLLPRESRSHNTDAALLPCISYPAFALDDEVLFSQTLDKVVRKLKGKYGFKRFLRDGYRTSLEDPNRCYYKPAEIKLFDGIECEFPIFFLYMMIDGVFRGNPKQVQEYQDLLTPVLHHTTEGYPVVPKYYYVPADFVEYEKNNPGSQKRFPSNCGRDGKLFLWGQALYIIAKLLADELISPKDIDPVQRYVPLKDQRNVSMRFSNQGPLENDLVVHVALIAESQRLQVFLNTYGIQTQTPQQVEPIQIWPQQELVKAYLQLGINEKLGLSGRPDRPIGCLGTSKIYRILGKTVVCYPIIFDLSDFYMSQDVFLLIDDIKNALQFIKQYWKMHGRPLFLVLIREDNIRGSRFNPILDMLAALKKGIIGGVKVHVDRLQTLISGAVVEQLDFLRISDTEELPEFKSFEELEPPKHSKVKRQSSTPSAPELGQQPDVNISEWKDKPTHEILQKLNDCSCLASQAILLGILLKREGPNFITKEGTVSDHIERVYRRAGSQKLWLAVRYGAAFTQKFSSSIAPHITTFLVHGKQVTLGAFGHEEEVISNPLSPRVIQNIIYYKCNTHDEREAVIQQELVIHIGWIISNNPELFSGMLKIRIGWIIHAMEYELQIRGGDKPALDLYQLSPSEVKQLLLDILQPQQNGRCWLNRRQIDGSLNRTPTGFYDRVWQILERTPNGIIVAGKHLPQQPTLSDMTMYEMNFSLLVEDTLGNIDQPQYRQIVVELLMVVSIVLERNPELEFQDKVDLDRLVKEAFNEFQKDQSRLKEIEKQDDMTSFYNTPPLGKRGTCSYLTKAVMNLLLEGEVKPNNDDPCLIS
UniProt O75145: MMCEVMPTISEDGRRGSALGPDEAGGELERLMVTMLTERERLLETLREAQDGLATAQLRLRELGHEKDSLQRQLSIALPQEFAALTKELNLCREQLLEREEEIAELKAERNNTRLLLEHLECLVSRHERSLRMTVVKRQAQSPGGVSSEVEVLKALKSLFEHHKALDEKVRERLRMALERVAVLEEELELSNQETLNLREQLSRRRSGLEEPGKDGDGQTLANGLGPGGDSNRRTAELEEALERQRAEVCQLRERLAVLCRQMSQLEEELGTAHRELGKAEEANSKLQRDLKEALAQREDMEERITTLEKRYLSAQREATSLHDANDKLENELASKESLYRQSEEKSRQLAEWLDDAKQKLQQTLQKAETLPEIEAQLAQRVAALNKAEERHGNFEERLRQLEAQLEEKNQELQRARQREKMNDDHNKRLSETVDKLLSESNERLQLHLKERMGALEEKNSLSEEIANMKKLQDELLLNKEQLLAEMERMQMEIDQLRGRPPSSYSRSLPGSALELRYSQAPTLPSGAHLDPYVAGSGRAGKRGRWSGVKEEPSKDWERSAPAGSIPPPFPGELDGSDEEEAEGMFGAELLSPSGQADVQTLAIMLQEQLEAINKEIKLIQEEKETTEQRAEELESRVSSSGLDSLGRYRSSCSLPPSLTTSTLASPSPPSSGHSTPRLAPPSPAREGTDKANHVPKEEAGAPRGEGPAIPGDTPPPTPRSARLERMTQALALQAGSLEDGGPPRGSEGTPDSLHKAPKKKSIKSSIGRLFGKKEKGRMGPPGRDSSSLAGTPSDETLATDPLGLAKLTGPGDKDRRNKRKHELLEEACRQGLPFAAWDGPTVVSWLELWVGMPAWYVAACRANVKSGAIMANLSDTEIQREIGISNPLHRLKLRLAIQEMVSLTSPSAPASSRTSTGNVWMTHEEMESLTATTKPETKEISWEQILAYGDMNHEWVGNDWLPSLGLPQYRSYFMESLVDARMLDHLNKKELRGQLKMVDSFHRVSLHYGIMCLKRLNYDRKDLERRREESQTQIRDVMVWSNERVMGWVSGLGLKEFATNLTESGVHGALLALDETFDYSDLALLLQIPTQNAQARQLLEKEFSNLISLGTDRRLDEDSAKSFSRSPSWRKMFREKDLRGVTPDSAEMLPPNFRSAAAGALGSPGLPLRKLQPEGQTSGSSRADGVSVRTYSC
UniProt O75167: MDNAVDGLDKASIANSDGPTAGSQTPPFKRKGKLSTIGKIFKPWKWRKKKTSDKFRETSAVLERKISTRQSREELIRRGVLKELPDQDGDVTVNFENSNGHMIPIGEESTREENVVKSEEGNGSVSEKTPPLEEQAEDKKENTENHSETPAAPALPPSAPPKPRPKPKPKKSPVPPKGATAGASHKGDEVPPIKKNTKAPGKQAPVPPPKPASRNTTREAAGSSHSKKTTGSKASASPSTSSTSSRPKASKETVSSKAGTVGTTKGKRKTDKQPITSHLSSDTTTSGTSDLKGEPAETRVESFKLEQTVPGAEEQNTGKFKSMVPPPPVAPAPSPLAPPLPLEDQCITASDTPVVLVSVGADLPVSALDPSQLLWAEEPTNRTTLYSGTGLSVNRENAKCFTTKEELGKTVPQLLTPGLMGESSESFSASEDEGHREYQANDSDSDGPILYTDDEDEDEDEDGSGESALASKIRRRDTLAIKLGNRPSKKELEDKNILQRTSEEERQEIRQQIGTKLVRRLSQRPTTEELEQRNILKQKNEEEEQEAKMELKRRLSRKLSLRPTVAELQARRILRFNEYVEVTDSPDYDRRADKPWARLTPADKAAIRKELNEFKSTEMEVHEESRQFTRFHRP
UniProt Q96L50: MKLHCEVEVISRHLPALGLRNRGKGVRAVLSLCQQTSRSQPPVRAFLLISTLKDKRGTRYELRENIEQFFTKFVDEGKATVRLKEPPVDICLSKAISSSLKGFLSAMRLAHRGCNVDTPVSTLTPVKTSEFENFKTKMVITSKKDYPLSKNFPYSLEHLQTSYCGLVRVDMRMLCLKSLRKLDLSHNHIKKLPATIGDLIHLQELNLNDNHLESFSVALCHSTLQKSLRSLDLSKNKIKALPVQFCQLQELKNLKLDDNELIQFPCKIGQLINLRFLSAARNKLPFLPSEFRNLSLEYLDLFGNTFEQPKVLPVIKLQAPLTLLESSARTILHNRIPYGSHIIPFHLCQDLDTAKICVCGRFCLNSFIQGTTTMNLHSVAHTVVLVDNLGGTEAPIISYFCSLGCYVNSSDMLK
UniProt P46019: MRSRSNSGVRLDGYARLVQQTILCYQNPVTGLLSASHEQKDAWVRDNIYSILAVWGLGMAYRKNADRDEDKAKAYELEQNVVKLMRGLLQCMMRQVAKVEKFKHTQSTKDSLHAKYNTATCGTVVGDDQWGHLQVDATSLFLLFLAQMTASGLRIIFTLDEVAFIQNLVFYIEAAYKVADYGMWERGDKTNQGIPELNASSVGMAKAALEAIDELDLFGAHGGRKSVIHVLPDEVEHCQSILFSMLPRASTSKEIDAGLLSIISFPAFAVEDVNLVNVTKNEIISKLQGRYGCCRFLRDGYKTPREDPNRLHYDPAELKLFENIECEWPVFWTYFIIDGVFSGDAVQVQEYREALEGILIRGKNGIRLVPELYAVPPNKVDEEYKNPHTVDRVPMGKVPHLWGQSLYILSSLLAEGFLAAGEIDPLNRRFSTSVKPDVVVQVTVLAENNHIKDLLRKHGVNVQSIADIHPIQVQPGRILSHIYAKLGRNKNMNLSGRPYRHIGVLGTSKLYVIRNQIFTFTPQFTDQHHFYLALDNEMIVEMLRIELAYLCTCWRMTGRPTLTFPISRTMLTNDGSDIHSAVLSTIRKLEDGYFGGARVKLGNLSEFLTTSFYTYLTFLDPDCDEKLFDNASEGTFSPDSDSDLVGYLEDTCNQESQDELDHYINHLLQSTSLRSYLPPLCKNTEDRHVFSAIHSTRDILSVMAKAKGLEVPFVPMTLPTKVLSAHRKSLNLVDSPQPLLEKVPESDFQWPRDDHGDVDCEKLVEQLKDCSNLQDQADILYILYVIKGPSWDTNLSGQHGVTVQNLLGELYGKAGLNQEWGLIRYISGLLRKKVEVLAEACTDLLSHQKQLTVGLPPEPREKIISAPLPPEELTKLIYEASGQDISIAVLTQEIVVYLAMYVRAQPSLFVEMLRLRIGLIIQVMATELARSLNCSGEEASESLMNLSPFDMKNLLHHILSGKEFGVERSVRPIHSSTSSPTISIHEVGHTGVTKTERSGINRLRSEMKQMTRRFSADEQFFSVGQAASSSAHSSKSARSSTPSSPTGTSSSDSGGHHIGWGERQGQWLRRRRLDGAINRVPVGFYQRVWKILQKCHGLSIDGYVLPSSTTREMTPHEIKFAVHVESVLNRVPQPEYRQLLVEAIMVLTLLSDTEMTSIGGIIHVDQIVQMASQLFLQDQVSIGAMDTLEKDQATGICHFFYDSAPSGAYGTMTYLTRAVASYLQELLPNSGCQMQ
UniProt Q9HB19: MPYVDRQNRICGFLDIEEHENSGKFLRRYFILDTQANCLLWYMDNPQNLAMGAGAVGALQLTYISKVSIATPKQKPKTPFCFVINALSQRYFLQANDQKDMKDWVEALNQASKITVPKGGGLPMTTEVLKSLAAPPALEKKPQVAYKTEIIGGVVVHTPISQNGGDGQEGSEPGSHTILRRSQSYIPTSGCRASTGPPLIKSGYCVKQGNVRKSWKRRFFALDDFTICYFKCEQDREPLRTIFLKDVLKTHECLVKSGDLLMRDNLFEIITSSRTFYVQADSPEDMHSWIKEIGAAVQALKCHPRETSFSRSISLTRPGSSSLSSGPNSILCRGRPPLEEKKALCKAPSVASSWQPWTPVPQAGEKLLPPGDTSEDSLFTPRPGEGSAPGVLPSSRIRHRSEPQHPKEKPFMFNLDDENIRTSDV
UniProt Q04941: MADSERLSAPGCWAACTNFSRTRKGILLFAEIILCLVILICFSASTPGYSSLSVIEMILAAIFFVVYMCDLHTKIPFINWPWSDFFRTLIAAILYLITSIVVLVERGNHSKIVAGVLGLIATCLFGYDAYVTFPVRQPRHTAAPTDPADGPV
UniProt Q8NEB9, whole entry: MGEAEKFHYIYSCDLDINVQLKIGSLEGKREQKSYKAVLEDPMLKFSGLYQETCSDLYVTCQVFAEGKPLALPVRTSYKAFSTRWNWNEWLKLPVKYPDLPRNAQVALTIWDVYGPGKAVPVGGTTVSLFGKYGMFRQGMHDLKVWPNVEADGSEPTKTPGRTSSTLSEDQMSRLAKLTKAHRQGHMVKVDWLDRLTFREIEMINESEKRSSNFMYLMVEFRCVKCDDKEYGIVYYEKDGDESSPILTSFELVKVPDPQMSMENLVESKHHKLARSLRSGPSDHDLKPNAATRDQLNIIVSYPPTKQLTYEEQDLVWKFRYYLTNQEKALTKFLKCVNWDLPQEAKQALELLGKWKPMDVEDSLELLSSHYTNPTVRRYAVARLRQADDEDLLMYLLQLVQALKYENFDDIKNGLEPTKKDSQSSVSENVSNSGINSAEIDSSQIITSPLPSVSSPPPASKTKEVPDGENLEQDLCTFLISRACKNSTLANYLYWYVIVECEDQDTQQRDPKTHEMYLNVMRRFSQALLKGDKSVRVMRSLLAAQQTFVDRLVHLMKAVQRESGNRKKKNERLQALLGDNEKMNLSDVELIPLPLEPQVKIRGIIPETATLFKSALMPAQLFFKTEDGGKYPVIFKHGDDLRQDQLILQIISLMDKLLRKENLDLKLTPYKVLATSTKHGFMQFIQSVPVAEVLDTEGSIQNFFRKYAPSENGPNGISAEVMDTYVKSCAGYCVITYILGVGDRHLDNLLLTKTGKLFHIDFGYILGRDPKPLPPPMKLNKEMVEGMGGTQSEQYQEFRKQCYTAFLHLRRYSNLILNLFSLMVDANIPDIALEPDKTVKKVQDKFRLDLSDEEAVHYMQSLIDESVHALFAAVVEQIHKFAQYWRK

Target | dose-dependent thermal stabilisation call
PPP3R1 (UniProt P63098) | inactive: 0
PPCS (UniProt Q9HAB8) | inactive: 0
PLK1 (UniProt P53350) | inactive: 0
PRKRIR (UniProt O43422) | inactive: 0
PMM1 (UniProt Q92871) | inactive: 0
PREB (UniProt Q9HCU5) | inactive: 0
POLR2H (UniProt P52434) | inactive: 0
PPME1 (UniProt Q9Y570) | inactive: 0
PMVK (UniProt Q15126) | inactive: 0
PPP5C (UniProt P53041) | inactive: 0
PHKB (UniProt Q93100) | inactive: 0
PPIG (UniProt Q13427) | inactive: 0
PPFIA1 (UniProt Q13136) | inactive: 0
PIK3R1 (UniProt P27986) | inactive: 0
PPFIA3 (UniProt O75145) | inactive: 0
PHACTR2 (UniProt O75167) | inactive: 0
PPIL5 (UniProt Q96L50) | inactive: 0
PPIE (UniProt Q9UNP9) | inactive: 0
POGZ (UniProt Q7Z3K3) | inactive: 0
PHKA2 (UniProt P46019) | inactive: 0
PICK1 (UniProt Q9NRD5) | inactive: 0
POLR3E (UniProt Q9NVU0) | inactive: 0
PPA1 (UniProt Q15181) | inactive: 0
PLEKHA2 (UniProt Q9HB19) | inactive: 0
PLP2 (UniProt Q04941) | inactive: 0
PGGT1B (UniProt P53609) | inactive: 0
PIK3C3 (UniProt Q8NEB9) | inactive: 0

Taken from above.
In dose-dependent thermal stabilisation call, PPP3R1 (UniProt P63098) reads inactive: 0
In dose-dependent thermal stabilisation call, POLR3E (UniProt Q9NVU0) reads inactive: 0

From the supplement of paper PMC7666118
